Experimental data published in article PMC4297935.
These are yes or no findings as the source states them, for the method shown. Binding seen in cells or lysates may run through a third protein. Some results given as binding are weak or reduced against the parent protein; the word gives no strength.

Protein sequences, listed by entry. Tags and fused reporters are not part of them.
UniProt P08047: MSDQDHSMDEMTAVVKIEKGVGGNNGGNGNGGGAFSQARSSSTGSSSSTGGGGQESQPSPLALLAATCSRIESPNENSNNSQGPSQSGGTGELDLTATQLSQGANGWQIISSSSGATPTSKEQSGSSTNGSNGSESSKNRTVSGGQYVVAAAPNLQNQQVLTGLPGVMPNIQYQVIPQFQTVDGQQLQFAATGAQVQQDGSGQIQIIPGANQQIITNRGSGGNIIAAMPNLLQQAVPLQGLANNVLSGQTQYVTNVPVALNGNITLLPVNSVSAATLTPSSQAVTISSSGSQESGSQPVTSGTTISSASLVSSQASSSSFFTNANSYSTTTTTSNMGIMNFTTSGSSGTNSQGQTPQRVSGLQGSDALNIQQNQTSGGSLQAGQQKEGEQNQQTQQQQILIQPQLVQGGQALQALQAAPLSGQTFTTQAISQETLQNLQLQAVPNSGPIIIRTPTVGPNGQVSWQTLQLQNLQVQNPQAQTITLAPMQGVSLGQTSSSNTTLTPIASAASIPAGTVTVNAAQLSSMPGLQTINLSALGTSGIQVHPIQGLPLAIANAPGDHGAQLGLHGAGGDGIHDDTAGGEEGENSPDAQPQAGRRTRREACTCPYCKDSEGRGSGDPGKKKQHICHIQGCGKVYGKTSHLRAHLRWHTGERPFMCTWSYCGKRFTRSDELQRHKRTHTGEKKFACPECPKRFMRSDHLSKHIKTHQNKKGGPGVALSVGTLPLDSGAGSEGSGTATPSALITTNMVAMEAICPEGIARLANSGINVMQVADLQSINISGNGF
UniProt Q02447: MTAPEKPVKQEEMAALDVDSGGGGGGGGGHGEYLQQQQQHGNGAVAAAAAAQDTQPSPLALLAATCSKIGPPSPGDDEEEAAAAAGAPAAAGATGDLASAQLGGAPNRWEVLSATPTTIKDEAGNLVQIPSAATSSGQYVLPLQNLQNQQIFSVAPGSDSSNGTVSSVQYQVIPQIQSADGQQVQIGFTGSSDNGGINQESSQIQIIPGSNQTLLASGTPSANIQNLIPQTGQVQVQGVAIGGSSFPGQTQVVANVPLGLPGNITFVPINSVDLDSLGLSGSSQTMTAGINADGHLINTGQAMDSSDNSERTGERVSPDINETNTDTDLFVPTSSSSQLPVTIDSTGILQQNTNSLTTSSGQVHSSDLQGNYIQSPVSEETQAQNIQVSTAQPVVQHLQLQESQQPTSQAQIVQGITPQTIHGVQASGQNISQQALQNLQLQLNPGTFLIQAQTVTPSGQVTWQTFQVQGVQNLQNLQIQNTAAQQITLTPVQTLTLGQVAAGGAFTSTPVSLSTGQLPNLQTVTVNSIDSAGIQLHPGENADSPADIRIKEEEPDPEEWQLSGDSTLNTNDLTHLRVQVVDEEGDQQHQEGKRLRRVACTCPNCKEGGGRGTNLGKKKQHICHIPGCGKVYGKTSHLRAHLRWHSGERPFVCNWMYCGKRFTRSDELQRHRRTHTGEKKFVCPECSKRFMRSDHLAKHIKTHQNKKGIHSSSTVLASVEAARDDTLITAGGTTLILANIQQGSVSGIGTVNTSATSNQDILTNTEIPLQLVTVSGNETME
UniProt Q92731: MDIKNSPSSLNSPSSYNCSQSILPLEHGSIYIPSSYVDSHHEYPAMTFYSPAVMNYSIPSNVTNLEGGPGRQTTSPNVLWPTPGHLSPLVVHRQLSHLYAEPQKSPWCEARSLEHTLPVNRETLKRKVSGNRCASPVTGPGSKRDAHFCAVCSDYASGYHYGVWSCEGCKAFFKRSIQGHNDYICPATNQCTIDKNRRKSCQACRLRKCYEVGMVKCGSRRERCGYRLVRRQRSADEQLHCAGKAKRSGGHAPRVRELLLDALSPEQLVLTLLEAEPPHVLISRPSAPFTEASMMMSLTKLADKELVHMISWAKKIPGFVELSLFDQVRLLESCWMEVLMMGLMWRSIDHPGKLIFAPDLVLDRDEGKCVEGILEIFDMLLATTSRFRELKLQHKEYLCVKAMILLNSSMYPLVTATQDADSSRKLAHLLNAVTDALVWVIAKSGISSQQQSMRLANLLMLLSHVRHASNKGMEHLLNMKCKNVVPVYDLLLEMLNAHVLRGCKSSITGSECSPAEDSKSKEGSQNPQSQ

Tests used:
[1] = molecular target: specificity protein-1 (Sp1) (human (endogenous in HAECs)) (UniProt P08047); assay: co-IP; nuclear extracts of treated HAECs (control, 100 nM E2, or E2 plus ICI 182,780, 48 h) immunoprecipitated with Sp1 antibody, immunoblotted for Sp1, ERα and ERβ
[2] = molecular target: Sp3 (human (endogenous in HAECs)) (UniProt Q02447); assay: co-IP; IP/IB for Sp3/ERβ from nuclear extracts of treated HAECs; no figure is given

binding [1]: binds
binding [2]: no binding
Substance: estrogen receptor beta (ERβ) (from UniProt Q92731 1-530)
